Results: paper PMC9857746
Results are given in words; binding and its absence hold for the method and conditions named. Binding seen in cells or lysates may run through a third protein.

Protein sequences, listed by entry. Tags and fused reporters are not part of them.
UniProt P49736: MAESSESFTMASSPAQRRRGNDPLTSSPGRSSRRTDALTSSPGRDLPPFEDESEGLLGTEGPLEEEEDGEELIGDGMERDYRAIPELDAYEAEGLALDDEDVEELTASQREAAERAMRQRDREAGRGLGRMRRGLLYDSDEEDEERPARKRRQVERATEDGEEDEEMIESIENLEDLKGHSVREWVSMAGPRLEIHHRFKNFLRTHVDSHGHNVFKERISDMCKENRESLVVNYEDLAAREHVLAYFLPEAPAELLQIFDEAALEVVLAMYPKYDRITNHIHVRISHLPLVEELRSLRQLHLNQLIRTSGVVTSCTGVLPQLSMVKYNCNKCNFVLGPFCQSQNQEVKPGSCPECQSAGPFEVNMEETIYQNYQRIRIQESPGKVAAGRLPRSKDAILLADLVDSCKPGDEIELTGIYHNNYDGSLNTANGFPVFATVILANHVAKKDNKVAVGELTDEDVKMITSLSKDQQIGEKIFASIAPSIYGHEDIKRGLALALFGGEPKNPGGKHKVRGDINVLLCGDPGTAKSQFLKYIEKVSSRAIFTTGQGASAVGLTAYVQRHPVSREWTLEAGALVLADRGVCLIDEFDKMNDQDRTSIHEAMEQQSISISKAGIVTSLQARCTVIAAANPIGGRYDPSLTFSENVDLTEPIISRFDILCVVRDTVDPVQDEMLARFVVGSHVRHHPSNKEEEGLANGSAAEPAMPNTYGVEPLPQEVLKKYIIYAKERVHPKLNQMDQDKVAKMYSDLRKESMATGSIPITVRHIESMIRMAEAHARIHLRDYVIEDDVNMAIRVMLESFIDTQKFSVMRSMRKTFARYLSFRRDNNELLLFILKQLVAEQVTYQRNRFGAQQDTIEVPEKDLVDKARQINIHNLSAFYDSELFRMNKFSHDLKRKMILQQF
UniProt P00722: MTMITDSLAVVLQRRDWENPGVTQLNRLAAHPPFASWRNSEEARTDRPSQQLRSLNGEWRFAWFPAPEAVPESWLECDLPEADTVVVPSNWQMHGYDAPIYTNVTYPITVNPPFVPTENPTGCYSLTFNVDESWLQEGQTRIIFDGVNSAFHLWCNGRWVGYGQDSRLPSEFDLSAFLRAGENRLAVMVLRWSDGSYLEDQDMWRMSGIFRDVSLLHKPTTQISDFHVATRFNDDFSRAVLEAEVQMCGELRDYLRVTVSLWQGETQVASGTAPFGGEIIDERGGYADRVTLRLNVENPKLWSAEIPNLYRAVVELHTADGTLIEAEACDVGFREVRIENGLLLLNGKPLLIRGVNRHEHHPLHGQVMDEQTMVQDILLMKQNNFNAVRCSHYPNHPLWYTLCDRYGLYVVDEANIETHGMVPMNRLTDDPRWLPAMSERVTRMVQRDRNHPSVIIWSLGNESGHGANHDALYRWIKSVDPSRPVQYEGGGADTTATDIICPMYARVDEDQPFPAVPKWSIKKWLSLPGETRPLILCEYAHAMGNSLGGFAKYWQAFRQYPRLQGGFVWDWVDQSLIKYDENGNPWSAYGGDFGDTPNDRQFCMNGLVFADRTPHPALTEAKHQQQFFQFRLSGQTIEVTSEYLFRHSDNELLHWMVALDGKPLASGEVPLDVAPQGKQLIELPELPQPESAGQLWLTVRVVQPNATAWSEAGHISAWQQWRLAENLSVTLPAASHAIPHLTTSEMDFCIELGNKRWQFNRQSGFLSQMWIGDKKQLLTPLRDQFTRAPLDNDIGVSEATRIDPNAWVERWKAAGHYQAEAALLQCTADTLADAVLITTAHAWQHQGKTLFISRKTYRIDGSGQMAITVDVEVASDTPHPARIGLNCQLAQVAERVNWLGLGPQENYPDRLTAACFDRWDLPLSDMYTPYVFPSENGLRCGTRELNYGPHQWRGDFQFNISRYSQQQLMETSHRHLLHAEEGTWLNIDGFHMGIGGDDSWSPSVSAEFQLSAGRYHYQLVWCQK

Tests used:
[1] = target: Halo-tagged human MCM2 (HaloMCM2) (human) (UniProt P49736); test: pull-down
[2] = target: HisLacZ (His-tagged LacZ control protein), stably expressed in HepG2 cells [β-galactosidase: P00722]; test: pull-down

**Q.** For “HisLacZ (His-tagged LacZ control protein), stably expressed in HepG2 cells (from UniProt P00722 1-1024)”, which binding [1] is on record?
**A.** no binding

**Q.** Which binding [2] does the source give for “endogenous MCM2 (minichromosome maintenance protein 2) (from UniProt P49736 1-904)” here?
**A.** no binding
